These are yes or no findings as the source states them, for the method shown.
Molecular target: mouse cannabinoid receptor 2 (mouse) (UniProt P47936)
Test: condition: dimerization cannot exceed 29% (90% confidence); single-molecule two-colour coincidence (smTIRF microscopy); HEK-293T cells cotransfected with HaloTag- and SNAP-tag-fused copies, labelled with HaloTag TMR Ligand and SNAP-Cell 505-Star, fixed in 4% formaldehyde; coincidence = HaloTag spots within 300 nm of a SNAP-tag spot for at least 10 frames, relative to all HaloTag spots; referenced to CD86 (monomer) and CD28 (dimer)

Protein sequences, listed by entry. Tags and fused reporters are not part of them.
UniProt P47936: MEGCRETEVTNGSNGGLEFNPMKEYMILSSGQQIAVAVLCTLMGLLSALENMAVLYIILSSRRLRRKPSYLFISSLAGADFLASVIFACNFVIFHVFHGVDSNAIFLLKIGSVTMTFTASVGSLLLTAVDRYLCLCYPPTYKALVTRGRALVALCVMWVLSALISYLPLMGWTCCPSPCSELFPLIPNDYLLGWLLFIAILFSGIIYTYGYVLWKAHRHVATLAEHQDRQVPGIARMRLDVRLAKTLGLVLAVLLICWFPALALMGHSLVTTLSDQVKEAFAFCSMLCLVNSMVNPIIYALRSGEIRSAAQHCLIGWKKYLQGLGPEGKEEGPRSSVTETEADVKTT

Substance: mouse cannabinoid receptor 2 (from UniProt P47936 1-347)
- binding: no binding

From PMC4643199
